Results are given in words; binding and its absence hold for the method and conditions named. Binding seen in cells or lysates may run through a third protein. Here binding means that the protein was enriched with, or labelled near, the bait; the list need not be complete.
B1: Putative ATP-dependent RNA helicase DHX30 (protein, UniProt Q7L2E3 1-1194)
chain: MFSLDSFRKDRAQHRQRQCKLPPPRLPPMCVNPTPGGTISRASRDLLKEFPQPKNLLNSVIGRALGISHAKDKLVYVHTNGPKKKKVTLHIKWPKSVEVEGYGSKKIDAERQAAAAACQLFKGWGLLGPRNELFDAAKYRVLADRFGSPADSWWRPEPTMPPTSWRQLNPESIRPGGPGGLSRSLGREEEEDEEEELEEGTIDVTDFLSMTQQDSHAPLRDSRGSSFEMTDDDSAIRALTQFPLPKNLLAKVIQIATSSSTAKNLMQFHTVGTKTKLSTLTLLWPCPMTFVAKGRRKAEAENKAAALACKKLKSLGLVDRNNEPLTHAMYNLASLRELGETQRRPCTIQVPEPILRKIETFLNHYPVESSWIAPELRLQSDDILPLGKDSGPLSDPITGKPYVPLLEAEEVRLSQSLLELWRRRGPVWQEAPQLPVDPHRDTILNAIEQHPVVVISGDTGCGKTTRIPQLLLERYVTEGRGARCNVIITQPRRISAVSVAQRVSHELGPSLRRNVGFQVRLESKPPSRGGALLFCTVGILLRKLQSNPSLEGVSHVIVDEVHERDVNTDFLLILLKGLQRLNPALRLVLMSATGDNERFSRYFGGCPVIKVPGFMYPVKEHYLEDILAKLGKHQYLHRHRHHESEDECALDLDLVTDLVLHIDARGEPGGILCFLPGWQEIKGVQQRLQEALGMHESKYLILPVHSNIPMMDQKAIFQQPPVGVRKIVLATNIAETSITINDIVHVVDSGLHKEERYDLKTKVSCLETVWVSRANVIQRRGRAGRCQSGFAYHLFPRSRLEKMVPFQVPEILRTPLENLVLQAKIHMPEKTAVEFLSKAVDSPNIKAVDEAVILLQEIGVLDQREYLTTLGQRLAHISTDPRLAKAIVLAAIFRCLHPLLVVVSCLTRDPFSSSLQNRAEVDKVKALLSHDSGSDHLAFVRAVAGWEEVLRWQDRSSRENYLEENLLYAPSLRFIHGLIKQFSENIYEAFLVGKPSDCTLASAQCNEYSEEEELVKGVLMAGLYPNLIQVRQGKVTRQGKFKPNSVTYRTKSGNILLHKSTINREATRLRSRWLTYFMAVKSNGSVFVRDSSQVHPLAVLLLTDGDVHIRDDGRRATISLSDSDLLRLEGDSRTVRLLKELRRALGRMVERSLRSELAALPPSVQEEHGQLLALLAELLRGPCGSFDVRKTADD
B2: Hyaluronan mediated motility receptor (protein, UniProt O75330 1-724)
chain: MSFPKAPLKRFNDPSGCAPSPGAYDVKTLEVLKGPVSFQKSQRFKQQKESKQNLNVDKDTTLPASARKVKSSESKESQKNDKDLKILEKEIRVLLQERGAQDRRIQDLETELEKMEARLNAALREKTSLSANNATLEKQLIELTRTNELLKSKFSENGNQKNLRILSLELMKLRNKRETKMRGMMAKQEGMEMKLQVTQRSLEESQGKIAQLEGKLVSIEKEKIDEKSETEKLLEYIEEISCASDQVEKYKLDIAQLEENLKEKNDEILSLKQSLEENIVILSKQVEDLNVKCQLLEKEKEDHVNRNREHNENLNAEMQNLKQKFILEQQEREKLQQKELQIDSLLQQEKELSSSLHQKLCSFQEEMVKEKNLFEEELKQTLDELDKLQQKEEQAERLVKQLEEEAKSRAEELKLLEEKLKGKEAELEKSSAAHTQATLLLQEKYDSMVQSLEDVTAQFESYKALTASEIEDLKLENSSLQEKAAKAGKNAEDVQHQILATESSNQEYVRMLLDLQTKSALKETEIKEITVSFLQKITDLQNQLKQQEEDFRKQLEDEEGRKAEKENTTAELTEEINKWRLLYEELYNKTKPFQLQLDAFEVEKQALLNEHGAAQEQLNKIRDSYAKLLGHQNLKQKIKHVVKLKDENSQLKSEVSKLRCQLAKKKQSETKLQEELNKVLGIKHFDPSKAFHHESKENFALKTPLKEGNTNCYRAPMECQESWK
B3: Cob(I)yrinic acid a,c-diamide adenosyltransferase, mitochondrial (enzyme, UniProt Q96EY8 33-250)
chain: QSRGPQGVEDGDRPQPSSKTPRIPKIYTKTGDKGFSSTFTGERRPKDDQVFEAVGTTDELSSAIGFALELVTEKGHTFAEELQKIQCTLQDVGSALATPCSSAREAHLKYTTFKAGPILELEQWIDKYTSQLPPLTAFILPSGGKISSALHFCRAVCRRAERRVVPLVQMGETDANVAKFLNRLSDYLFTLARYAAMKEGNQEKIYMKNDPSAESEGL
B4: Ataxin2L (protein, UniProt Q8WWM7 1-1075)
chain: MLKPQPLQQPSQPQQPPPTQQAVARRPPGGTSPPNGGLPGPLATSAAPPGPPAAASPCLGPVAAAGSGLRRGAEGILAPQPPPPQQHQERPGAAAIGSARGQSTGKGPPQSPVFEGVYNNSRMLHFLTAVVGSTCDVKVKNGTTYEGIFKTLSSKFELAVDAVHRKASEPAGGPRREDIVDTMVFKPSDVMLVHFRNVDFNYATKDKFTDSAIAMNSKVNGEHKEKVLQRWEGGDSNSDDYDLESDMSNGWDPNEMFKFNEENYGVKTTYDSSLSSYTVPLEKDNSEEFRQRELRAAQLAREIESSPQYRLRIAMENDDGRTEEEKHSAVQRQGSGRESPSLASREGKYIPLPQRVREGPRGGVRCSSSRGGRPGLSSLPPRGPHHLDNSSPGPGSEARGINGGPSRMSPKAQRPLRGAKTLSSPSNRPSGETSVPPPPAVGRMYPPRSPKSAAPAPISASCPEPPIGSAVPTSSASIPVTSSVSDPGVGSISPASPKISLAPTDVKELSTKEPGRTLEPQELARIAGKVPGLQNEQKRFQLEELRKFGAQFKLQPSSSPENSLDPFPPRILKEEPKGKEKEVDGLLTSEPMGSPVSSKTESVSDKEDKPPLAPSGGTEGPEQPPPPCPSQTGSPPVGLIKGEDKDEGPVAEQVKKSTLNPNAKEFNPTKPLLSVNKSTSTPTSPGPRTHSTPSIPVLTAGQSGLYSPQYISYIPQIHMGPAVQAPQMYPYPVSNSVPGQQGKYRGAKGSLPPQRSDQHQPASAPPMMQAAAAAGPPLVAATPYSSYIPYNPQQFPGQPAMMQPMAHYPSQPVFAPMLQSNPRMLTSGSHPQAIVSSSTPQYPSAEQPTPQALYATVHQSYPHHATQLHAHQPQPATTPTGSQPQSQHAAPSPVQHQAGQAPHLGSGQPQQNLYHPGALTGTPPSLPPGPSAQSPQSSFPQPAAVYAIHHQQLPHGFTNMAHVTQAHVQTGITAAPPPHPGAPHPPQVMLLHPPQSHGGPPQGAVPQSGVPALSASTPSPYPYIGHPQGEQPGQAPGFPGGADDRIREFSLAGGIWHGRAEGLQVGQDARVLGGE

Protein sequences, listed by entry. Tags and fused reporters are not part of them. Lines headed by an entry give the natural chain unless they say otherwise; changes in a name come on top. Residues count along the entry.
UniProt Q96RK0: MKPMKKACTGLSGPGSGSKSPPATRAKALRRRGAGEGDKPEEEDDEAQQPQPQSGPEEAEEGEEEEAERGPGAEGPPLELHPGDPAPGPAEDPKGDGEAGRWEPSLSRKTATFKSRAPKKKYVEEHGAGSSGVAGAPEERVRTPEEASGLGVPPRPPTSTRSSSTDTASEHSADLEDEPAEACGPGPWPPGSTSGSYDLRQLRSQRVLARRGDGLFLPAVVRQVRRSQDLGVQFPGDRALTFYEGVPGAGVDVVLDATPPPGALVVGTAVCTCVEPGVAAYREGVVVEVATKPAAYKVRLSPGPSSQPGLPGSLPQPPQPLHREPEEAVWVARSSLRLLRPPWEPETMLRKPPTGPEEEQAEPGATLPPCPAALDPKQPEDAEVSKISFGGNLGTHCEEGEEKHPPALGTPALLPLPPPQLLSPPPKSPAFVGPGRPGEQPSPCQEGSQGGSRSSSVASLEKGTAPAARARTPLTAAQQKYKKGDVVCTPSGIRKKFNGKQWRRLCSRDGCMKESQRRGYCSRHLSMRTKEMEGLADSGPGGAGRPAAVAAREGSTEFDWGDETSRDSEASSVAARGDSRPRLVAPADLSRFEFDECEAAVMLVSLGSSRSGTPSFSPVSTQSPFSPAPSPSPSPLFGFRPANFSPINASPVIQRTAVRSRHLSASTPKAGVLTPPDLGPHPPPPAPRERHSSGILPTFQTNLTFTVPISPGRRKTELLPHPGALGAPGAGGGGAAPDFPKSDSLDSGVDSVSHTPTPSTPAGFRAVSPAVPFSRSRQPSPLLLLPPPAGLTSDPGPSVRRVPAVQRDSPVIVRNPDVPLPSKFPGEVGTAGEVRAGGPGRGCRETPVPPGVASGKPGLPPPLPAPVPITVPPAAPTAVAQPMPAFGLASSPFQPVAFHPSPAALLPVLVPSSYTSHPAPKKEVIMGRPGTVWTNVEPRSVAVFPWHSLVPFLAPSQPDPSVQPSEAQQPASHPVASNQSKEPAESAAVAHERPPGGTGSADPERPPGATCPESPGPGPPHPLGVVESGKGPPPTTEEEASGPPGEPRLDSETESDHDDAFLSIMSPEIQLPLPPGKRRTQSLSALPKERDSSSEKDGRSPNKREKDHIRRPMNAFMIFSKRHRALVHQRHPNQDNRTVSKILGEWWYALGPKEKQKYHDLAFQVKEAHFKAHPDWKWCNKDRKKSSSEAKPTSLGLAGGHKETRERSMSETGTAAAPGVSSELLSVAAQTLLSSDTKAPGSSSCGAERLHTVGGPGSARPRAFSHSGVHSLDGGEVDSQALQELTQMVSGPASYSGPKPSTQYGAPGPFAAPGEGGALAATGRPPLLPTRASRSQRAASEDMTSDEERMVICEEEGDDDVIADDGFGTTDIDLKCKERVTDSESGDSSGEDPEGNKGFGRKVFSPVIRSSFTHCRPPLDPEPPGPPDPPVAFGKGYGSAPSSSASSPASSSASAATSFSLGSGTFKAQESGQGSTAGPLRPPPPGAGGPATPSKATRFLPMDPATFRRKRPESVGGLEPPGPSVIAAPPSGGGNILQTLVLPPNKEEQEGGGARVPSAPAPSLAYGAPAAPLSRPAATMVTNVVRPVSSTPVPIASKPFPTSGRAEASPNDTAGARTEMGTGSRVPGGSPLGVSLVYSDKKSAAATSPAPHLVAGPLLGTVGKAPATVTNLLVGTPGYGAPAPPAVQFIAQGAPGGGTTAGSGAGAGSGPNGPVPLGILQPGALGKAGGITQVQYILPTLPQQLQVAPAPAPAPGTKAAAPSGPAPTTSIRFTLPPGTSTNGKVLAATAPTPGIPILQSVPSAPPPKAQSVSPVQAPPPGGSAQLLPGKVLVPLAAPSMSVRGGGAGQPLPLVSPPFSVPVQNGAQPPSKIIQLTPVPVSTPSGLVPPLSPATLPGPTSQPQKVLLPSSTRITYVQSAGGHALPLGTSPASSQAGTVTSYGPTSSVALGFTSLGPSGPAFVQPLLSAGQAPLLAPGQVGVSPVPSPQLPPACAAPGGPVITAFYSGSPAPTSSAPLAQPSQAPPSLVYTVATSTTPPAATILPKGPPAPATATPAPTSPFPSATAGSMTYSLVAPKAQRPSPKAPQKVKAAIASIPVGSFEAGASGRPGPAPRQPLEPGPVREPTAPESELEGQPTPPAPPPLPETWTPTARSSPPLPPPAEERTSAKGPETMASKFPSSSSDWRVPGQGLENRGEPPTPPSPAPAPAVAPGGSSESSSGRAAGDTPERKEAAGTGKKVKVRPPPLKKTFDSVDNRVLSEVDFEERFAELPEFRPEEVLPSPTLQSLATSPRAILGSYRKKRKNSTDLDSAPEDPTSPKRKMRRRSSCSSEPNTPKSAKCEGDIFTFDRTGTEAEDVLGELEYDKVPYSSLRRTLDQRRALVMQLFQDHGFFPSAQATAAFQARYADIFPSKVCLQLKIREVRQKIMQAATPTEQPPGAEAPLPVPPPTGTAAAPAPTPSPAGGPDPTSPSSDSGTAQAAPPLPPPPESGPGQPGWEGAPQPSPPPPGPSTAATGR
UniProt P38646, residues 47-679: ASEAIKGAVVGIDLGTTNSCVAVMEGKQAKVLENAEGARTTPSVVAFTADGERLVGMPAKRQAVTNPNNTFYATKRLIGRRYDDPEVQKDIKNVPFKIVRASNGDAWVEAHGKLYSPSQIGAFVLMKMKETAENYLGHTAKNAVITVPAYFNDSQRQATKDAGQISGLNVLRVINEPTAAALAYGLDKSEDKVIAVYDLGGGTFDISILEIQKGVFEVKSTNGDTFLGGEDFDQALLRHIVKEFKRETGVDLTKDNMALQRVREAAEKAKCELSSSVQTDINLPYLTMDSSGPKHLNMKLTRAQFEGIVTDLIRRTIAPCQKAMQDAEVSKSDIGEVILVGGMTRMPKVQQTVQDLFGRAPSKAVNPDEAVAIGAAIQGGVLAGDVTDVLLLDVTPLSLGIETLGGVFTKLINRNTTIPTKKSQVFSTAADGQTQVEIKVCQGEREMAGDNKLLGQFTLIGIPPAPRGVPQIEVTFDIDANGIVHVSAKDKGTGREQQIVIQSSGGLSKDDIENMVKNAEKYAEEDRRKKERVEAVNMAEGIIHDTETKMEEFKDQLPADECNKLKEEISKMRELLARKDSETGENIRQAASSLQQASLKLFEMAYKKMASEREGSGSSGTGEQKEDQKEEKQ
UniProt P53396: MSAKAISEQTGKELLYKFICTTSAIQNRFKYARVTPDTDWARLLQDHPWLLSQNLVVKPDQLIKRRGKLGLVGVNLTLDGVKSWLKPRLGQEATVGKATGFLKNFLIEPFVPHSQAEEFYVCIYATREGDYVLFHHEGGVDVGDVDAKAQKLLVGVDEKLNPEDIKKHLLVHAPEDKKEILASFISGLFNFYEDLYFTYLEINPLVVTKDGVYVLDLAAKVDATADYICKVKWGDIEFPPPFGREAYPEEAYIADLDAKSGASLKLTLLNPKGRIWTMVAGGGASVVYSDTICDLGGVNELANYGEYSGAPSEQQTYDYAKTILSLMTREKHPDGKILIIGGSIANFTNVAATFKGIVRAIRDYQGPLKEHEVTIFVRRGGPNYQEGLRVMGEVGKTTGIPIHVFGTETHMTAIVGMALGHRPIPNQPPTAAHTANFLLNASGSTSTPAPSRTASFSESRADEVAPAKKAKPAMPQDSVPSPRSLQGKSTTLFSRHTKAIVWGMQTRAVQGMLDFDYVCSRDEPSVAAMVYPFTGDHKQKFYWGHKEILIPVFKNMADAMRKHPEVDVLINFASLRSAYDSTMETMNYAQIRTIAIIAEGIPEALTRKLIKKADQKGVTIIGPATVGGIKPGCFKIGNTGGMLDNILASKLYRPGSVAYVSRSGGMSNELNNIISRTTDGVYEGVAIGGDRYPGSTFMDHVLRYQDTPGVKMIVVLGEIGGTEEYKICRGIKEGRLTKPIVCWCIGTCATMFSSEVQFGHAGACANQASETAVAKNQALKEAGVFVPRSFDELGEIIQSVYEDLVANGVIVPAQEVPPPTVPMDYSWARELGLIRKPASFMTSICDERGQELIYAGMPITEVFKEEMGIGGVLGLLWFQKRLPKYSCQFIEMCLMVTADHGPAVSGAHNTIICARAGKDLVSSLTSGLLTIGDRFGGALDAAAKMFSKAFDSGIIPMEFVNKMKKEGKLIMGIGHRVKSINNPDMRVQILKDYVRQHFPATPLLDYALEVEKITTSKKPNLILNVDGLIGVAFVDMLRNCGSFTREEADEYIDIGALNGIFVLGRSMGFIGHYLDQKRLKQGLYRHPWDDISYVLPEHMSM
UniProt O00429: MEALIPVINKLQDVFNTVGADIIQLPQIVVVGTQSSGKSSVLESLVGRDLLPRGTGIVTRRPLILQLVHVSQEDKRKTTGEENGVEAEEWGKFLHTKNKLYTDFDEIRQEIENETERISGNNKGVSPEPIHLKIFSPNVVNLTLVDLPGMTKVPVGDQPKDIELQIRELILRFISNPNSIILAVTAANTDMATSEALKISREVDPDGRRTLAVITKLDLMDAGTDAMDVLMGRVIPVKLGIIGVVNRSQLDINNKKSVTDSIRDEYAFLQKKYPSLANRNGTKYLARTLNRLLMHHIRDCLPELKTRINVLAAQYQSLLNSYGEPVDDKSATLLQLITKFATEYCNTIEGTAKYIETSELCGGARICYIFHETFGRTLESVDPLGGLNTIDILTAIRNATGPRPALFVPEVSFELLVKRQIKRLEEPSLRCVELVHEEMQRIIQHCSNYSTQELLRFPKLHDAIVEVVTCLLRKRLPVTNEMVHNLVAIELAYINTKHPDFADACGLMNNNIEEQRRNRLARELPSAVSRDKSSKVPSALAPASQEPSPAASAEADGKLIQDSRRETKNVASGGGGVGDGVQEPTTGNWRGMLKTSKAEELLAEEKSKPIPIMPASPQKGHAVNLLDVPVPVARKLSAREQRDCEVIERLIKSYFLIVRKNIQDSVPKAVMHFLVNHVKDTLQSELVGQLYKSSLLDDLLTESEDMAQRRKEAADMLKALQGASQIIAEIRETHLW
UniProt P25705, residues 44-553: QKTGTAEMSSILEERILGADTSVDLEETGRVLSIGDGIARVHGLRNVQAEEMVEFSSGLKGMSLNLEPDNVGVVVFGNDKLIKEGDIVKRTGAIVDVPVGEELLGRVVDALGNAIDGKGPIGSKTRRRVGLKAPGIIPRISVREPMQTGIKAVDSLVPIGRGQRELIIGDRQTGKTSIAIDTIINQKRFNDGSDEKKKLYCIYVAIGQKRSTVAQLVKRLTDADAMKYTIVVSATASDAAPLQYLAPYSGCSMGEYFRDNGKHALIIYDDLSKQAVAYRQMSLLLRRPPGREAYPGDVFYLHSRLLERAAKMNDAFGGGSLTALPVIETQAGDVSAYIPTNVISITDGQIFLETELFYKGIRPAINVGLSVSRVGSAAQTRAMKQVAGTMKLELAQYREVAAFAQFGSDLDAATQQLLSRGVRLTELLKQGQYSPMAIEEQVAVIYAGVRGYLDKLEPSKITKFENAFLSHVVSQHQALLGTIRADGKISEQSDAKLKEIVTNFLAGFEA

Legend:
[1] = target: N-terminally GFP tagged CIC-S (human) (UniProt Q96RK0); experiment: affinity purification with mass spectrometry; CIC-S with N-terminal FLAG, Myc or GFP tag transiently expressed in HEK cells; IP of cytoplasmic fractions with anti-FLAG (F-1), anti-Myc (M-1) or anti-GFP (G-1) antibodies, empty vectors as controls; LC-MS/MS
[2] = target: N-terminally FLAG fused CIC-S (human) (UniProt Q96RK0); experiment: as above
[3] = target: endogenous Capicua short isoform (CIC-S) (human (endogenous in HEK)) (UniProt Q96RK0); experiment: affinity purification with mass spectrometry; IP of endogenous CIC with an anti-CIC antibody on protein G agarose from HEK cytoplasmic fractions (E-1, E-2, E-3; W-1 not explained), rabbit IgG IPs as controls; IP buffer 20mM Tris-HCl pH 7.5, 150mM NaCl, 1mM EDTA, 4°C; LC-MS/MS
[4] = target: N-terminally Myc tagged CIC-S (human) (UniProt Q96RK0); experiment: affinity purification with mass spectrometry; CIC-S with N-terminal FLAG, Myc or GFP tag transiently expressed in HEK cells; IP of cytoplasmic fractions with anti-FLAG (F-1), anti-Myc (M-1) or anti-GFP (G-1) antibodies, empty vectors as controls; LC-MS/MS

Row | Molecule | binding [1] | binding [2] | binding [3] | binding [4]
1 | Stress-70 protein, mitochondrial (from UniProt P38646 47-679) | binds | binds | – | –
2 | ATP synthase subunit beta, mitochondrial (from UniProt P06576 48-529) | binds | – | binds | –
3 | ATP-citrate synthase (ATP citrate-lyase), endogenous (from UniProt P53396 1-1101) (enzyme) | – | – | binds | –
4 | Dynamin-1-like protein (from UniProt O00429 1-736) | – | – | binds | –
5 | ATP synthase subunit alpha, mitochondrial (from UniProt P25705 44-553) | binds | – | – | binds
6 | B1 | – | – | binds | binds
7 | B2 | – | – | binds | –
8 | B3 | – | – | binds | –
9 | B4 | – | – | binds | –

Reference: publication PMC4202173
